{"source": "PubChem BioAssay AID1259405 (NCATS, 2018)", "purpose": "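Knock-downs that lift recombinant protein yield in hamster ovary cells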 (primary screen)", "cells": "Chinese hamster CHO-K1 ovary cells with stable secreted eGFP expression", "reagents": "single siRNA against mouse genes, 0.8 pmol siRNA per well (2 µl of 400 nM stock)", "timing": "3 days", "measured": "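Per-well intracellular GFP measured by laser scanning cytometry, plus viability from ATP luminescence, each relative to plate median of non-targeting control wells, in %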", "direction": "GFP, % of control: higher = more GFP per well, higher productivity; viability (ATP), % of control: higher = more viable cells (more ATP)", "hit rule": "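a knock-down is called active if GFP reaches 120% or more of non-targeting control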", "note": "Here is a random part of about 50,000 reagents tested. Of all reagents, about 4,000 (8%) are marked active. 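Mouse siRNA library applied to hamster cells; one well for each siRNA.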 The numbers tell different reagents against one gene apart."}
{"gene":"Mfsd8","siRNA no.":1,"GFP, % of control":51.2,"viability (ATP), % of control":73.2,"activity call":"inactive"}
{"gene":"Mfsd8","siRNA no.":2,"GFP, % of control":83,"viability (ATP), % of control":103,"activity call":"inactive"}
{"gene":"Mfsd8","siRNA no.":3,"GFP, % of control":75.2,"viability (ATP), % of control":85.1,"activity call":"inactive"}
{"gene":"Txndc12","siRNA no.":1,"GFP, % of control":88.3,"viability (ATP), % of control":108,"activity call":"inactive"}
{"gene":"Txndc12","siRNA no.":2,"GFP, % of control":88.6,"viability (ATP), % of control":85.2,"activity call":"inactive"}
{"gene":"Txndc12","siRNA no.":3,"GFP, % of control":109,"viability (ATP), % of control":79.9,"activity call":"inactive"}
{"gene":"1810009A15Rik","siRNA no.":1,"GFP, % of control":75.3,"viability (ATP), % of control":100,"activity call":"inactive"}
{"gene":"1810009A15Rik","siRNA no.":2,"GFP, % of control":53.4,"viability (ATP), % of control":50.5,"activity call":"inactive"}
{"gene":"1810009A15Rik","siRNA no.":3,"GFP, % of control":64.4,"viability (ATP), % of control":63.9,"activity call":"inactive"}
{"gene":"Rbbp4","siRNA no.":1,"GFP, % of control":96.4,"viability (ATP), % of control":83.9,"activity call":"inactive"}
{"gene":"Rbbp4","siRNA no.":2,"GFP, % of control":86.9,"viability (ATP), % of control":69.6,"activity call":"inactive"}
{"gene":"Rbbp4","siRNA no.":3,"GFP, % of control":111,"viability (ATP), % of control":86.9,"activity call":"inactive"}
{"gene":"Or4f53","siRNA no.":1,"GFP, % of control":110,"viability (ATP), % of control":91.8,"activity call":"inactive"}
{"gene":"Or4f53","siRNA no.":2,"GFP, % of control":41.3,"viability (ATP), % of control":47.8,"activity call":"inactive"}
{"gene":"Or4f53","siRNA no.":3,"GFP, % of control":65.7,"viability (ATP), % of control":92.8,"activity call":"inactive"}
{"gene":"Smim12","siRNA no.":1,"GFP, % of control":47,"viability (ATP), % of control":54.7,"activity call":"inactive"}
{"gene":"Smim12","siRNA no.":2,"GFP, % of control":95.4,"viability (ATP), % of control":87.7,"activity call":"inactive"}
{"gene":"Smim12","siRNA no.":3,"GFP, % of control":114,"viability (ATP), % of control":115,"activity call":"inactive"}
{"gene":"Eid2","siRNA no.":1,"GFP, % of control":81.3,"viability (ATP), % of control":144,"activity call":"inactive"}
{"gene":"Eid2","siRNA no.":2,"GFP, % of control":81.4,"viability (ATP), % of control":67.6,"activity call":"inactive"}
{"gene":"Rdm1","siRNA no.":1,"GFP, % of control":92.6,"viability (ATP), % of control":86.5,"activity call":"inactive"}
{"gene":"Rdm1","siRNA no.":2,"GFP, % of control":69.9,"viability (ATP), % of control":72.1,"activity call":"inactive"}
{"gene":"Rdm1","siRNA no.":3,"GFP, % of control":41.1,"viability (ATP), % of control":59.3,"activity call":"inactive"}
{"gene":"Prdx2","siRNA no.":1,"GFP, % of control":85.8,"viability (ATP), % of control":75.4,"activity call":"inactive"}
{"gene":"Prdx2","siRNA no.":2,"GFP, % of control":81.3,"viability (ATP), % of control":73,"activity call":"inactive"}
{"gene":"Prdx2","siRNA no.":3,"GFP, % of control":109,"viability (ATP), % of control":85.9,"activity call":"inactive"}
{"gene":"Atp1a1","siRNA no.":1,"GFP, % of control":103,"viability (ATP), % of control":105,"activity call":"inactive"}
{"gene":"Atp1a1","siRNA no.":2,"GFP, % of control":150,"viability (ATP), % of control":123,"activity call":"active"}
{"gene":"Atp1a1","siRNA no.":3,"GFP, % of control":82.7,"viability (ATP), % of control":93.2,"activity call":"inactive"}
{"gene":"Tuft1","siRNA no.":1,"GFP, % of control":86.4,"viability (ATP), % of control":86.8,"activity call":"inactive"}
{"gene":"Tuft1","siRNA no.":2,"GFP, % of control":80.8,"viability (ATP), % of control":102,"activity call":"inactive"}
{"gene":"Tuft1","siRNA no.":3,"GFP, % of control":85.8,"viability (ATP), % of control":84.9,"activity call":"inactive"}
{"gene":"Irak3","siRNA no.":1,"GFP, % of control":88.6,"viability (ATP), % of control":57.6,"activity call":"inactive"}
{"gene":"Tbx2","siRNA no.":1,"GFP, % of control":88.1,"viability (ATP), % of control":93.8,"activity call":"inactive"}
{"gene":"Tbx2","siRNA no.":2,"GFP, % of control":91.1,"viability (ATP), % of control":47.3,"activity call":"inactive"}
{"gene":"Tbx2","siRNA no.":3,"GFP, % of control":86.7,"viability (ATP), % of control":93.2,"activity call":"inactive"}
{"gene":"Or6c38","siRNA no.":1,"GFP, % of control":92.3,"viability (ATP), % of control":66.7,"activity call":"inactive"}
{"gene":"Or6c38","siRNA no.":2,"GFP, % of control":100,"viability (ATP), % of control":71.5,"activity call":"inactive"}
{"gene":"Or6c38","siRNA no.":3,"GFP, % of control":95.7,"viability (ATP), % of control":90.6,"activity call":"inactive"}
{"gene":"9530085L02Rik","siRNA no.":1,"GFP, % of control":109,"viability (ATP), % of control":73.4,"activity call":"inactive"}
{"gene":"9530085L02Rik","siRNA no.":2,"GFP, % of control":82.5,"viability (ATP), % of control":64.2,"activity call":"inactive"}
{"gene":"9530085L02Rik","siRNA no.":3,"GFP, % of control":53.6,"viability (ATP), % of control":68.1,"activity call":"inactive"}

2 consecutive records from above, for reference:
{"gene":"Txndc12","siRNA no.":2,"GFP, % of control":88.6,"viability (ATP), % of control":85.2,"activity call":"inactive"}
{"gene":"Txndc12","siRNA no.":3,"GFP, % of control":109,"viability (ATP), % of control":79.9,"activity call":"inactive"}
